# Measurements taken from PubChem BioAssay (EPA / NIEHS).
# Amino acid sequences for entries named in this document (tags omitted).
# UniProt Q92731, whole entry, looked up: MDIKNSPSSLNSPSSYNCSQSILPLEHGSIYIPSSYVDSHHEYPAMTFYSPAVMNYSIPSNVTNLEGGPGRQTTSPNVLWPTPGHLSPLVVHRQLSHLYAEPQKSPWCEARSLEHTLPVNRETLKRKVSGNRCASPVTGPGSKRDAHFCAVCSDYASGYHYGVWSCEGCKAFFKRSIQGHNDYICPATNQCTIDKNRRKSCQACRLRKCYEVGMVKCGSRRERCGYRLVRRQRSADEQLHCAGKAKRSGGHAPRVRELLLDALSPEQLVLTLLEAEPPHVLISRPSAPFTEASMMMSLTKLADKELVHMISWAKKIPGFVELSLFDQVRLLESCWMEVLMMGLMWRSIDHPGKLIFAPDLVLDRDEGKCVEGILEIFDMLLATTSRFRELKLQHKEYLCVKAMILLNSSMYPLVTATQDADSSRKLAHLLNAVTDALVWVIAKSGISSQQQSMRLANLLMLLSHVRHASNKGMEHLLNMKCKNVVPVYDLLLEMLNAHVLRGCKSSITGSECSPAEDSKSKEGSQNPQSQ
# Values joined by “and” are separate entries in the source; they are usually repeats but may differ in a detail not shown here. Identical values can stand only once. The inconclusive results got no clear call from the source; some entries with a clear call stand among them for comparison. Where the call is inconclusive, the potency comes from a doubtful curve fit. Some compounds were tested as several samples or in several runs, with calls that do not always agree. Active and inactive are the calls of the source. The calls were made as follows: active = hit-call score of the fitted dose curve at least 0.9, where 1 is the maximum; inconclusive = response in the unintended direction; inactive = score below 0.9.
# Target: Estrogen receptor beta (Homo sapiens) (UniProt Q92731)
# Assay: OT_ER_ERbERb_0480: Odyssey Thera (OT) 8-hour HEK293T Protein-Complementation Assay for Estrogen Receptor-beta/-beta Homodimer (AID 2283357);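 also: active means signal gain over DMSO baseline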
# Procedure, shortened: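 Fluorescence intensity, nuclear for agonists and nuclear plus cytoplasmic for antagonists, was quantified by laser scanning cytometry versus vehicle after 8 h treatment. The cells were HEK293T stably carrying ER beta LBD fragment-complementation partners.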
SMILES,AC50,outcome
CC1=C(C)S(=O)(=O)CCS1(=O)=O,inconclusive: 50 µM,
OC1CCC(C2CCCCC2)CC1 (centres undefined),active: 25.6 µM and active: 31.9 µM and active: 26.9 µM,inactive
O=Nc1ccc(Nc2ccccc2)cc1,inconclusive: 50 µM,
